Laboratory results published in publication PMC4463457.
Results are given in words; binding and its absence hold for the method and conditions named. Binding seen in cells or lysates may run through a third protein. Some binding calls cover weakened binding; strength is not graded here.

The chains behind the UniProt entries cited, without tags or fusion partners.
UniProt P35462: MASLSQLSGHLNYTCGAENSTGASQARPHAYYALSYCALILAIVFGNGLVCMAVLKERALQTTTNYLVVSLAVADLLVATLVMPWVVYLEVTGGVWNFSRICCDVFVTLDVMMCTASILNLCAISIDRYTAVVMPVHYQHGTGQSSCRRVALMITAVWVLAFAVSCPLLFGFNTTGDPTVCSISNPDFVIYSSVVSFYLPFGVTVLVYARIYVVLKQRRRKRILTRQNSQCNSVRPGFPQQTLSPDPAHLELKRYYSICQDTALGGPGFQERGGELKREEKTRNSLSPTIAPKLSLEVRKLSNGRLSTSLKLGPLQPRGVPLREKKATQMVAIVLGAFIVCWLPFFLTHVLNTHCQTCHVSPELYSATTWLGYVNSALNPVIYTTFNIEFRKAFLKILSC

Target: VSV-SNAP-hD3 (VSV- and SNAP-tagged human dopamine D3 receptor) (human) (UniProt P35462)
Assay: FRET or BRET; htrFRET (Tag-Lite) on intact transfected HEK293T cells; SNAP-Lumi4-Tb 10 nM as donor and increasing concentrations of SNAP-Red as acceptor; hD3 and EGFR constructs at similar cell surface expression; emission at 665 nm after excitation at 337 nm

VSV-SNAP-hD3 (VSV- and SNAP-tagged human dopamine D3 receptor) (from UniProt P35462 1-400)
binding: binds
